This passage reports Switch results from US10072023B2, “Diarylethene compounds and uses thereof” (SWITCH MATERIALS, INC., priority 2011, dated 2018).

A short description of this data set: Electrochemical switching (Switch: reversible photochromic/electrochromic conversion). The data set is classed as physicochemical. More on the design: key: Y: “Switch” refers to the ability (yes or no) of the compound to be reversibly converted under photochromic and electrochromic conditions between a ring-open isomer and ring-closed isomer. The note with it: reversibly converted under photochromic and electrochromic conditions.
Consider `Cc1cc(-c2sc(C)c(C)c2C2=C(c3c(-c4cc(C)c(C)s4)sc(C)c3C)C(F)(F)C(F)(F)C2(F)F)sc1C` [S039, 3,3′-(perfluorocyclopent-1-ene-1,2-diyl)bis(4,4′,5,5′-tetramethyl-2,2′-bithiophene)], for which the Switch entry is listed as “Y”. With `Cc1ccc(-c2sc(-c3cccs3)cc2C2=C(c3cc(-c4cccs4)sc3-c3ccc(C)s3)C(F)(F)C(F)(F)C2(F)F)s1` [S027, 3′,3″″-(perfluorocyclopent-1-ene-1,2-diyl)bis(5-methyl-2,2′:5′,2″-terthiophene)], the Switch result is recorded as “Y”. With `Cc1cc(-c2sc(-c3sc(C)c(C)c3C)cc2C2=C(c3cc(-c4sc(C)c(C)c4C)sc3-c3cc(C)c(C)s3)C(F)(F)C(F)(F)C2(F)F)sc1C` [S148, 4′,4″″-(perfluorocyclopent-1-ene-1,2-diyl)bis(3,4,4″,5,5″-pentamethyl-2,2′:5′,2″-terthiophene)], the Switch entry was “Y”.

As for `CCOCCOCCOCCOc1ccc(-c2sc(-c3ccc(C(C)(C)C)s3)cc2C2=C(c3cc(-c4ccc(C(C)(C)C)s4)sc3-c3ccc(OCCOCCOCCOCC)cc3)C(F)(F)C(F)(F)C2(F)F)cc1` [S109, 4,4″-(perfluorocyclopent-1-ene-1,2-diyl)bis(5′-(tert-butyl)-5-(4-(2-(2-(2-ethoxyethoxy)ethoxy)ethoxy)phenyl)-2,2′-bithiophene)], the Switch entry is “Y”. The entry for `COc1ccc(-c2cc(C3=C(c4cc(-c5ccc(OC)cc5)sc4-c4ccc(OC)cc4)C(F)(F)C(F)(F)C3(F)F)c(-c3ccc(OC)cc3)s2)cc1` [S054, 3,3′-(perfluorocyclopent-1-ene-1,2-diyl)bis(2,5-bis(4-methoxyphenyl)thiophene)] is “Y”. Turning to `COc1cc(OC)cc(-c2cc(C3=C(c4cc(-c5cc(OC)cc(OC)c5)sc4-c4cc(OC)cc(OC)c4)C(F)(F)C(F)(F)C3(F)F)c(-c3cc(OC)cc(OC)c3)s2)c1` [S097, 3,3′-(perfluorocyclopent-1-ene-1,2-diyl)bis(2,5-bis(3,5-dimethoxyphenyl)thiophene)], the Switch result is “Y”. Consider `COc1ccc(-c2sc(-c3ccc(/C=C/c4ccccc4)cc3)cc2C2=C(c3cc(-c4ccc(/C=C/c5ccccc5)cc4)sc3-c3ccc(OC)cc3)C(F)(F)C(F)(F)C2(F)F)cc1` [S088, (E)-3,3′-(perfluorocyclopent-1-ene-1,2-diyl)bis(2-(4-methoxyphenyl)-5-(4-((E)-styryl)phenyl)thiophene)], for which the Switch result is “Y”. For the molecule `COc1ccc2c(C3=C(c4c(-c5ccc(OC)c(OC)c5)oc5cc(OC)ccc45)C(F)(F)C(F)(F)C3(F)F)c(-c3ccc(OC)c(OC)c3)oc2c1` [S155, 3,3′-(perfluorocyclopent-1-ene-1,2-diyl)bis(2-(3,4-dimethoxyphenyl)-6-methoxybenzofuran)], the Switch entry is “Y”. In the case of `CC(C)(C)c1ccc(-c2sc(-c3cccs3)cc2C2=C(c3cc(-c4cccs4)sc3-c3ccc(C(C)(C)C)cc3)C(F)(F)C(F)(F)C2(F)F)cc1` [S052, 4,4″-(perfluorocyclopent-1-ene-1,2-diyl)bis(5-(4-(tert-butyl)phenyl)-2,2′-bithiophene)], the Switch entry is “Y”. Take `Cc1sc(-c2cc(C3=C(c4cc(-c5sc(C)c6c5OCCO6)sc4-c4sc(C)c5c4OCCO5)C(F)(F)C(F)(F)C3(F)F)c(-c3sc(C)c4c3OCCO4)s2)c2c1OCCO2` [S036]: the Switch entry was “Y”. The entry for `Cc1ccc(-c2oc3ccccc3c2C2=C(c3c(-c4ccc(C)s4)oc4ccccc34)C(F)(F)C(F)(F)C2(F)F)s1` [S137, 3,3′-(perfluorocyclopent-1-ene-1,2-diyl)bis(2-(5-methylthiophen-2-yl)benzofuran)] is “Y”; for `Cc1c(-c2ccccc2)sc(-c2ccccc2)c1C1=C(c2c(-c3ccccc3)sc(-c3ccccc3)c2C)C(F)(F)C(F)(F)C1(F)F` [S017, 4,4′-(perfluorocyclopent-1-ene-1,2-diyl)bis(3-methyl-2,5-diphenylthiophene)] it is “Y”; for `CC(C)(C)c1ccc(-c2cc(C3=C(c4cc(-c5ccc(C(C)(C)C)cc5)sc4-c4cccs4)C(F)(F)C(F)(F)C3(F)F)c(-c3cccs3)s2)cc1` [S049, 3,3″-(perfluorocyclopent-1-ene-1,2-diyl)bis(5-(4-(tert-butyl)phenyl)-2,2′-bithiophene)] it is “Y”. As for `COCCOCCOCCOC(C)(C)c1ccc(-c2cc(C3=C(c4cc(-c5ccc(C(C)(C)OCCOCCOCCOC)cc5)sc4-c4ccc(C(C)(C)C)cc4)C(F)(F)C(F)(F)C3(F)F)c(-c3ccc(C(C)(C)C)cc3)s2)cc1` [S068, 12,12′-((4,4′-(perfluorocyclopent-1-ene-1,2-diyl)bis(5-(4-(tert-butyl)phenyl)thiophene-4,2-diyl))bis(4,1-phenylene))bis(12-methyl-2,5,8,11-tetraoxatridecane)], the Switch entry was “Y”.

In the case of `COc1ccc2c(C3=C(c4c(-c5ccc(C(C)(C)C)cc5)oc5cc(OC)ccc45)C(F)(F)C(F)(F)C3(F)F)c(-c3ccc(C(C)(C)C)cc3)oc2c1` [S151, 3,3′-(perfluorocyclopent-1-ene-1,2-diyl)bis(2-(4-(tert-butyl)phenyl)-6-methoxybenzofuran)], the Switch entry is “Y”. The same measure for `CC(C)(C)c1ccc(-c2cc(C3=C(c4cc(-c5ccc(C(C)(C)C)s5)sc4-c4ccc(N5CCOCC5)cc4)C(F)(F)C(F)(F)C3(F)F)c(-c3ccc(N4CCOCC4)cc3)s2)s1` [S112, 4,4′-((4,4″-(perfluorocyclopent-1-ene-1,2-diyl)bis(5′-(tert-butyl)-[2,2′-bithiophene]-5,4-diyl))bis(4,1-phenylene))dimorpholine]: “Y”; for `COc1ccc2c(C3=C(c4c(-c5ccc(-c6ccc(C(C)(C)C)s6)s5)oc5cc(OC)ccc45)C(F)(F)C(F)(F)C3(F)F)c(-c3ccc(-c4ccc(C(C)(C)C)s4)s3)oc2c1` [S152, 3,3′-(perfluorocyclopent-1-ene-1,2-diyl)bis(2-(5′-(tert-butyl)-[2,2′-bithiophen]-5-yl)-6-methoxybenzofuran)]: “Y”. As to `FC1(F)C(c2cc(-c3ccc(Cl)cc3)sc2-c2ccc(Cl)cc2)=C(c2cc(-c3ccc(Cl)cc3)sc2-c2ccc(Cl)cc2)C(F)(F)C1(F)F` [S056, 3,3′-(perfluorocyclopent-1-ene-1,2-diyl)bis(2,5-bis(4-chlorophenyl)thiophene)], the Switch entry is recorded as “Y”. With `CC(C)(C)c1ccc(-c2sc(-c3ccc(C(C)(C)O)cc3)cc2C2=C(c3cc(-c4ccc(C(C)(C)O)cc4)sc3-c3ccc(C(C)(C)C)cc3)C(F)(F)C(F)(F)C2(F)F)cc1` [S067, 2,2′-((4,4′-(perfluorocyclopent-1-ene-1,2-diyl)bis(5-(4-(tert-butyl)phenyl)thiophene-4,2-diyl))bis(4,1-phenylene))bis(propan-2-ol)], the Switch result is “Y”. The entry for `CC(C)(C)c1ccc(-c2sc(-c3ccccc3)cc2C2=C(c3cc(-c4ccccc4)sc3-c3ccc(C(C)(C)C)cc3)C(F)(F)C(F)(F)C2(F)F)cc1` [S057, 3,3′-(perfluorocyclopent-1-ene-1,2-diyl)bis(2-(4-tert-butylphenyl)-5-phenylthiophene)] is “Y”.
